Source: patent US20230167453
For some of these results: The comparison behind a weaker result is the experiment's own reference, which may not be listed here. For some of these results: Where a protein sequence is shown, tags need not be part of it.

Assays:
[1] = molecular target: T1, CD5L (CD5 antigen-like) (Homo sapiens) (UniProt O43866); assay: activity in cells; details: 2'-F pyrimidines; reduces pAKT, tube formation and migration in bevacizumab-resistant RF24 cells; purified recombinant protein; variant of S76; dose not given here
T1 sequence (looked up, limits assumed): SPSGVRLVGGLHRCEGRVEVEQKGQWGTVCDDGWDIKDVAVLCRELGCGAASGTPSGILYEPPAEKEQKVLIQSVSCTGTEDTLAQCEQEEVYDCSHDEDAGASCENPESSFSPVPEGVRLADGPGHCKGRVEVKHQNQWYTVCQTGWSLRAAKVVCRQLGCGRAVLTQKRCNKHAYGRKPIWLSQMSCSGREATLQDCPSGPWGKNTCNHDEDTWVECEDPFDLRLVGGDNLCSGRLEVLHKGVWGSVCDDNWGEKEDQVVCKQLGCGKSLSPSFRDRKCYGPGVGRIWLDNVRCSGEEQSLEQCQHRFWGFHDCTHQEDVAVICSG

[2] = tested on: VEGF (negative control protein); assay: MST; details: 2'-F pyrimidines; weak binding indicated, not fittable; purified recombinant protein; protein details: labeled, R&D Systems; variant of S5

Sequence | functional effect of the aptamer [1] | binding result [2]
AGGUUGCAGCGUUCGACAGGAGGCUCACAACAG [S76.T] | active | –
AGACAAGAAUAAACGCUCAAAAAGAGAGAAGGAUAAGAACCAUCAAAAAGAGAGAGCAGAGCCAGAUUCGACAGGAGGCUCACAACAGGC [S23] | – | binds more weakly
AGACAAGAAUAAACGCUCAAUUAUCGGAGAGGCCGAACAGAUACUUCGUUAGACAGGUUGCAGCGUUCGACAGGAGGCUCACAACAGGC [S76] | – | binds more weakly
AGACAAGAAUAAACGCUCAAUUAUCGGAGAGGCCGAACAGAUACUUCGUUAGACACCUUGCAGCGUUCGACAGGAGGC [S11] | – | binds more weakly
